± gives the standard deviation. Only a part is listed here, and it is no random draw. The uncertainty is large for many entries. This is one part of the list.
Legend:
[1] = test system: MILI (PIWIL2) piRISC loaded with L1MC piRNA (26 nt); assay: pre-steady-state target cleavage rate (min^-1); higher = faster piRNA-guided slicing of the target; conditions: guide: L1MC piRNA 5'p-UAACUAAAUACUAUGCAAGCUGUAGG
Outline: (§1)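 Active affinity-purified piRISC (1 nM) loaded with one synthetic guide was mixed with a transcribed, DNA-blocked target RNA library (0.1 nM), with or without 500 nM GTSF1 partner protein, in HEPES–potassium acetate buffer at 33 °C for 0–8 or 0–960 min. Uncleaved targets were sequenced, normalised to depth and to weakly complementary targets, and pooled across three trials, with k3 capped at 0.0001 min^-1. The pre-steady-state cleavage rate was determined with a burst-and-steady-state fit.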

[2] = test system: MIWI (PIWIL1) piRISC loaded with L1MC piRNA (30 nt); assay: as above; conditions: guide: L1MC piRNA 5'p-UAACUAAAUACUAUGCAAGCUGUAGGUCCU
Outline: as §1

[3] = test system: EfPiwi piRISC loaded with L1MC piRNA (26 nt); assay: pre-steady-state target cleavage rate (min^-1); guide: L1MC piRNA 5'p-UAACUAAAUACUAUGCAAGCUGUAGG; MIWI and MILI are mouse PIWI proteins and EfPiwi is from a freshwater sponge; tags in brackets are library labels; higher = faster piRNA-guided slicing of the target
Outline: as §1

[4] = auxiliary factor: 500 nM mouse GTSF1
[5] = auxiliary factor: none (no GTSF1)
[6] = auxiliary factor: 500 nM Ephydatia muelleri Gtsf1

Row | Sequence | pre-steady-state target cleavage rate [1, 4] | pre-steady-state target cleavage rate [1, 5] | pre-steady-state target cleavage rate [2, 5] | pre-steady-state target cleavage rate [3, 6] | pre-steady-state target cleavage rate [2, 4] | pre-steady-state target cleavage rate ([3]; auxiliary factor: none (no Gtsf1))
1 | UCCUGGAACAGCUUGCAUAGUAAAAACAAA | 0.0763 ± 0.031 | 0.000633 ± 0.013 | 0.0015 ± 0.0059 | 0.000723 ± 0.0071 | – | –
2 | UCCUGGAUCAGCUUGCAUCAGUAUUUAGUUA | 0.0028 ± 0.0049 | 0.00111 ± 0.0058 | 0.00104 ± 0.0063 | 0.000454 ± 0.0073 | 0.00223 ± 0.0047 | –
3 | UCCUCGUACAGCUUGCAUAGUAUUUAGAAA | 0.131 ± 0.024 | 0.00192 ± 0.0033 | 0.00538 ± 0.0021 | 0.00711 ± 0.0033 | 0.363 ± 0.029 | –
4 | UCCUGGAUGUCGUUGCUAUGUAUUUAGUUA | 0.000946 ± 0.0098 | 0.00038 ± 0.012 | 0.000686 ± 0.014 | 0.000292 ± 0.013 | 0.000263 ± 0.033 | –
5 | UCCUGGAUGUCGAACCAUAGUAUUUUAGUUA | 0.000813 ± 0.0077 | 0.000308 ± 0.013 | 0.000388 ± 0.017 | 0.000153 ± 0.016 | 0.000185 ± 0.018 | –
6 | UCCUCCUCCAGCUUGCAUAGUAUUUAGUUA | 0.265 ± 0.019 | 0.00605 ± 0.0026 | 0.0546 ± 0.0092 | 0.194 ± 0.056 | 1.12 ± 0.027 | –
7 | UCCUGGAUGUCGUUGCAUAGAUAUUUAGUUA | 0.00379 ± 0.0039 | 0.00298 ± 0.0032 | 0.00157 ± 0.0055 | 0.000329 ± 0.011 | 0.0011 ± 0.0085 | –
8 | UCCUGCGUACAGCUUGCAUAGUAUUUAGUUA | 0.314 ± 0.021 | 0.0109 ± 0.0033 | 0.0785 ± 0.016 | 0.0434 ± 0.012 | 1.33 ± 0.062 | –
9 | UCCUGGAUGUCGUAGCAUACUAUUUAGUUA | 0.00267 ± 0.004 | 0.000348 ± 0.017 | 0.000516 ± 0.014 | 0.000293 ± 0.011 | 0.00121 ± 0.0058 | –
10 | UCCUGGACCAGCUUGCAUAGUAUUUAGUUA | 0.246 ± 0.02 | 0.00604 ± 0.0027 | 0.0367 ± 0.0074 | 0.159 ± 0.037 | 0.915 ± 0.048 | –
11 | UCCUCCUACAGCUUGCAUACUAUUUAGAUA | 0.0353 ± 0.01 | 0.000949 ± 0.0042 | 0.0075 ± 0.0022 | 0.00315 ± 0.0027 | 0.0831 ± 0.015 | –
12 | UCCUGGAUGUGCUUGCAUAGAUUUUAGUAA | 0.00169 ± 0.0071 | 0.00158 ± 0.0036 | 0.000983 ± 0.0055 | 0.000735 ± 0.006 | 0.00109 ± 0.01 | –
13 | UCCUGGAUGUGCAACCAUAGUAUUUAGUAA | 0.00554 ± 0.0027 | 0.000694 ± 0.0081 | 0.000916 ± 0.0083 | 0.000246 ± 0.016 | 0.0021 ± 0.0046 | –
14 | UCCUGGAUCAGCUUGCAUAGUAUUUAGCUA | 0.00534 ± 0.0036 | 0.000457 ± 0.013 | 0.00651 ± 0.0022 | 0.00129 ± 0.0046 | 0.0164 ± 0.0052 | –
15 | UCCUGGUAGUGCUUGCAUAGUAUUUACAAA | 0.00115 ± 0.0093 | 0.000735 ± 0.008 | 0.00157 ± 0.0051 | 0.00135 ± 0.0029 | 0.00283 ± 0.0053 | –
16 | UCCUGGAUGUGCUUGCAGUAGUAUUUAGUUA | 0.00165 ± 0.0073 | 0.000718 ± 0.011 | 0.000749 ± 0.012 | 0.000395 ± 0.011 | 0.00172 ± 0.0072 | –
17 | UCCUGGAUGUCGAACCACAGUAUUUAGUUA | 0.000781 ± 0.0087 | 0.000138 ± 0.022 | 0.000546 ± 0.0075 | 0.000115 ± 0.024 | 0.000598 ± 0.0075 | –
18 | UCCUGGAUGUCGUUGCAUAGUAUUUUGUAA | 0.00161 ± 0.0069 | 0.000924 ± 0.008 | 0.000625 ± 0.0087 | 0.000211 ± 0.026 | – | –
19 | UCCUGGAUGUGGUUGCAUAGUAAUUAGUUA | 0.162 ± 0.034 | 0.00751 ± 0.0032 | 0.00277 ± 0.0039 | – | 0.00355 ± 0.0054 | 0.0043 ± 0.0054

Source: the supplement of paper PMC10338343
